Measured values as given in patent US7427488B2, “Purified and isolated platelet calcium channel nucleic acids and polypeptides and therapeutic and screening methods using same” (The University of North Carolina at Chapel Hill, priority 2000, dated 2008).
At least one compound was matched to its structure with a doubt left.

Tests used:
Format in all cases: cell-based, human
[1] = system: Annexin-V (phosphatidylserine) on platelet surface; assay: Cell surface markers of platelet activation by flow cytometry: Annexin V binding; conditions: 0.167 units/ml thrombin for 1 minute, 1 μM CaCl2; ↑ increase, ↓ decrease
Experimental: (§1) Human blood was collected in acid-citrate-dextrose (ACD, 85 mM trisodium citrate, 70 mM citric acid, 111 mM dextrose). Platelet rich plasma (PRP) was prepared by centrifugation of anticoagulated blood at 25° C. for 8 minutes at 200×g. Platelets were separated from plasma via gel filtration by applying the PRP to a 2.7×10 cm SEPHAROSE™ CL4B column (Amersham Biosciences Corp., Piscataway, N.J., United States of America) equilibrated with modified Tyrode's buffer (145 mM NaCl, 4 mM KCl, 1 mM MgSO4, 6 mM glucose, 10 mM Na-HEPES). Gel filtered platelets were collected and adjusted to a concentration of about 200×10^6 platelets/ml.
Platelets were stained for cell surface activation markers according to “Flow Cytometric Analysis of Platelets”. Monoclonal Antibodies Source Book. Vol. Section 2.19 (Becton, Dickinson And Co., Franklin Lakes, N.J., United States of America). Briefly, after treatment with agonists or antagonists as above, cells were activated with 0.167 units/ml thrombin (concentration chosen based on [Ca^2+ ]i studies) for 1 minute in the presence of 1 μM CaCl2, and then stained with the combination of CD61 PerCP and Annexin V FITC, or PAC-1 FITC, CD61 PerCP, and CD62 PE for 15 minutes at room temperature in the dark. […] Cells were analyzed on a FACSCAN™ flow cytometer. Mean cell fluorescence (MCF) was compared to control platelets (thrombin only) for each experimental condition. […]

[2] = system: PAC1 (activated GPIIb/IIIa) on platelet surface; assay: Cell surface markers of platelet activation by flow cytometry: PAC1; conditions: for PAC1 (activated GPIIb/IIIa), change of mean cell fluorescence versus control platelets (thrombin only): 0.167 units/ml thrombin for 1 minute, 1 μM CaCl2, ↑ increase, ↓ decrease
Experimental: as §1
(§2) Platelets were stained for cell surface activation markers according to “Flow Cytometric Analysis of Platelets”. Monoclonal Antibodies Source Book. Vol. Section 2.19 (Becton, Dickinson And Co., Franklin Lakes, N.J., United States of America). Briefly, after treatment with agonists or antagonists as above, cells were activated with 0.167 units/ml thrombin (concentration chosen based on [Ca^2+ ]i studies) for 1 minute in the presence of 1 μM CaCl2, and then stained with the combination of CD61 PerCP and Annexin V FITC, or PAC-1 FITC, CD61 PerCP, and CD62 PE for 15 minutes at room temperature in the dark. The reaction was then quenched with cold 1% paraformaldehyde in PBS. Cells were analyzed on a FACSCAN™ flow cytometer. Mean cell fluorescence (MCF) was compared to control platelets (thrombin only) for each experimental condition. CD61 PerCP was used as the platelet marker for gating purposes. CD61 recognizes the GPIIIa (the β subunit of the GPIIb/IIIa complex) and the vitronectin receptor. It is found on all normal resting and activated platelets. Annexin V has a high binding affinity for phosphatidylserine. PAC-1 recognizes an epitope of GPIIb/IIIa on activated platelets at or near the fibrinogen receptor. CD62 is a marker of platelet a granule release (PADGEM: platelet activation-dependent granule-external membrane protein; also called P-selectin).

[3] = system: CD62 (PADGEM; P-selectin) on platelet surface; assay: Cell surface markers of platelet activation by flow cytometry: CD62; conditions: for CD62 (PADGEM; P-selectin), change of mean cell fluorescence versus control platelets (thrombin only): 0.167 units/ml thrombin for 1 minute, 1 μM CaCl2, ↑ increase, ↓ decrease
Experimental: as §1, §2

[4] = system: platelet VDCC (thrombin-activated platelets); assay: Flow cytometric analysis of [Ca2+]i in thrombin-activated platelets
Experimental: The conduction of calcium by the VDCC is measured in vitro by measuring changes in cytoplasmic free (ionized) calcium concentrations. Cytoplasmic calcium concentrations are measured by performing flow cytometric analysis with the calcium indicators fluo-3 and fura red as detailed by Novak & Rabinovitch, 1994. Briefly, platelets in whole blood, platelet rich plasma or biological buffers are incubated with esters of fluo-3 and fura red, and then aspirated into the flow cytometric instrument for measurement of calcium-dependent fluorescent changes. Cytoplasmic calcium concentrations are calculated from the ratio or fluo-3 and fura red relative fluorescence intensities. Experiments are performed with increasing doses of VDCC inhibitors with platelets that are in the resting state and subjected to different concentrations of activation agonists and VDCC antagonists and agonists. […]
PRP (prepared as above) was incubated with 5 μM Fura 2-AM and 5 μM Fluo 3-AM for 20 minutes at 37° C. […] Thrombin was then added to a final concentration of 0.0167, 0.05, 0.167 or 0.5 units/ml and mean cell fluorescence (MCF) of Fura 2 and Fluo 3 was measured at 1 minute on a FACSCAN™ (BD Biosciences, San Jose, Calif., United States of America) flow cytometer as per Novak & Rabinovitch, 1994. The ratio of fluo 3 to fura 2 MCF was calculated and compared to controls for each experimental condition.

Compound | Annexin V (phosphatidylserine), change of mean cell fluorescence versus control platelets (thrombin only) [1] | PAC1 (activated GPIIb/IIIa), change of mean cell fluorescence versus control platelets (thrombin only) [2] | CD62 (PADGEM; P-selectin), change of mean cell fluorescence versus control platelets (thrombin only) [3] | [Ca2+]i ratio ([4]; 50 nM, two highest concentrations of thrombin, 0.167 and 0.5 units/ml (FIG. 7)) | effect on [Ca2+]i (in words) ([4]; thrombin-activated platelets) | effect on the surface expression of PAC1 (in words) ([2]; thrombin-activated platelets) | effect on the surface expression of CD62 (in words) ([3]; thrombin-activated platelets)
COC(=O)C1=C(C)NC(C)=C([N+](=O)[O-])[C@H]1c1ccccc1C(F)(F)F [Bay K (−)] | 56% ↑ | 9% ↓ | 4% ↓ |  |  |  | 
CCOC(=O)C1=C(C)NC(C)=C(C(=O)OC)C1c1cccc([N+](=O)[O-])c1 (stereo not shown) [Nitrendipine, nitrendipine] |  |  |  | decrease | reduced [Ca^2+]i under certain conditions | minimal effect | minimal effect
COC(=O)C1=C(C)NC(C)=C([N+](=O)[O-])[C@@H]1c1ccccc1C(F)(F)F [Bay K (+)] | 4% ↓ | 7% ↓ | 5% ↓ |  |  |  | 
